In PubChem BioAssay AID493014 (National Center for Advancing Translational Sciences (NCATS), 2011):
The list shows a part of the results. Shown are side measurements of this screen, not its main read-out; they come without a call. The list favours compounds with an active or inconclusive main result. Potencies come from curve fits of mixed quality, noted in brackets.

Test: qHTS Assay to Find Inhibitors of Chronic Active B-Cell Receptor Signaling
Details: ABC-DLBCL IkBa-CBG/CBR reporter, luminescence ratio (green luciferase fused to IkBa over red control in TMD8 lymphoma cells), 4 h
Method in brief: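 Doxycycline induced both beetle luciferases in TMD8 lymphoma cells; IKK-driven degradation limits the IkappaBalpha-fused green signal, while red luminescence normalises for cell number and nonspecific effects. Compounds tested up to 46 uM, 4 hrs.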

[1] = measured here: CBR red luminescence, cell number
[2] = measured here: IkBa-CBG green luminescence

CCC(=O)NC1=C(NC(C)c2ccccc2)C(=O)c2ccccc2C1=O (configuration not stated)
AC50 [1]: 16.4 µM [rising, partial curve, poor fit]

C/C(=N\NC(=O)C(C)Sc1ccccc1)c1ccc([N+](=O)[O-])cc1 (configuration not stated)
AC50 [1]: 7.94 µM [rising, partial curve]

CC(=O)O[C@H]1CC[C@]2(C)[C@H]3CC=C4[C@@H]5[C@@H](C)[C@H](C)CC[C@]5(C(=O)O)CC[C@@]4(C)[C@]3(C)CC[C@H]2C1(C)C
AC50 [1]: 22.4 µM [rising, partial curve, poor fit]

Cc1ccc(CNC(=O)COc2ccc(S(=O)(=O)N3CCOCC3)cc2)cc1
AC50 [1]: 6.51 µM [rising, single point]

COc1cccc(NC(=O)c2cnc(SCC(=O)NCc3ccc4c(c3)OCO4)n(C)c2=O)c1
AC50 [1]: 9.2 µM [falling, partial curve]

COc1ccc(-c2noc(C3CCCN(C(=O)Nc4ccccc4)C3)n2)cc1 (configuration not stated)
AC50 [1]: 0.891 µM [falling, full curve]

CCn1cc(CN2CCCC(CNC(=O)COc3ccccc3OC)C2)c(C)n1 (configuration not stated)
AC50 [1]: 0.562 µM [falling, full curve, poor fit]

COc1ccccc1CNC(=O)COC(=O)c1cc(-c2ccco2)nc2ccccc12
AC50 [1]: 25.9 µM [falling, single point]

CCC(=O)N1N=C(c2c(O)n(C)c(=O)n(C)c2=O)CC1c1ccccc1 (configuration not stated)
AC50 [1]: 35.5 µM [falling, single point]

O=C(NCC(=O)N1CCCCC1)c1sc2ccccc2c1Cl
AC50 [1]: 11.6 µM [falling, partial curve]

c1ccc(COc2ccccc2CNC23CC4CC(CC(C4)C2)C3)cc1
AC50 [1]: 11.2 µM [falling, partial curve, poor fit]
AC50 [2]: 28.2 µM [rising, partial curve, poor fit]

Cc1ccccc1CNc1nc(N)n(-c2ccccc2)n1
AC50 [1]: 17.8 µM [falling, partial curve, poor fit]

c1ccc2[nH]c(CN3CCCCCC3)nc2c1
AC50 [1]: 20.6 µM [falling, single point]

CCCN(CCC)Cc1c(C(=O)N/N=C/C(C)=C\c2ccco2)nnn1-c1nonc1N
AC50 [2]: 20 µM [rising, partial curve, poor fit]

O=C(Cn1nc2n(c1=O)-c1ccccc1SC2)N/N=C/c1cccnc1
AC50 [1]: 10 µM [rising, partial curve, poor fit]

CCOCCCN(C)C1CCN(C(=O)c2oc3ccccc3c2NC(=O)c2ccc([N+](=O)[O-])cc2)CC1
AC50 [1]: 14.1 µM [rising, single point]

S=c1[nH]nc(Nc2cccc(Cl)c2)s1
AC50 [1]: 1.12 µM [rising, full curve, poor fit]

O=C1CC(c2ccccc2)CC(O)=C1C=NCCN1CCN(Cc2ccccc2)CC1 (configuration not stated)
AC50 [1]: 3.98 µM [falling, single point]

C/C(=N\NC(=O)COc1ccc(C(C)(C)C)cc1)c1ccc(N2CCOCC2)cc1
AC50 [2]: 29.1 µM [falling, partial curve, poor fit]

Clc1ccccc1CSc1ncccn1
AC50 [1]: 10.3 µM [rising, single point]

O=C(Nc1ccc(Cl)cc1Cl)c1ccc2ncsc2c1
AC50 [1]: 0.398 µM [rising, full curve, poor fit]

CCCCCCc1nnc(NC(=O)OCC)s1
AC50 [1]: 10 µM [rising, partial curve]

Cc1nnc2ccc(-c3ccc(NC(=O)c4ccco4)cc3)nn12
AC50 [1]: 35.5 µM [falling, single point]

COc1ccc2c(c1)[nH]c1c(=O)n(Cc3ccccn3)cnc12
AC50 [1]: 1.3 µM [rising, partial curve, poor fit]

C/C(CC(=O)Nc1cccc(F)c1)=N\NC(=O)c1ccncc1
AC50 [1]: 35.5 µM [falling, single point]

O=C(Cc1cccs1)Nc1ccccc1C(=O)O
AC50 [1]: 29.1 µM [falling, single point]

Cc1cc(C(=O)O)ccc1-c1ccc(/C=N/n2cnnc2)o1
AC50 [1]: 11.2 µM [falling, partial curve]

COc1ccc(/C(O)=C2/C(=O)C(=O)N(c3ccccn3)C2c2ccc(OC)cc2)cc1 (configuration not stated)
AC50 [1]: 35.5 µM [rising, single point]

O=C(O)CSc1nnc2c(n1)[nH]c1ccccc12
AC50 [1]: 35.5 µM [falling, single point]

Cc1cc(C)n(-c2nc(-c3ccc(Cl)cc3)cs2)n1
AC50 [1]: 3.66 µM [rising, partial curve, poor fit]

O=C(Nc1ccccc1)N1CCCC1
AC50 [1]: 1.3 µM [rising, partial curve]

Cn1c(=O)c2c(ncn2CCO)n(C)c1=O
AC50 [1]: 4.47 µM [falling, partial curve, poor fit]

Cc1nc([N+](=O)[O-])c(Br)n1CC(=O)c1ccc(F)cc1
AC50 [1]: 0.1 µM [falling, full curve, poor fit]

CC(C)C(=O)Nc1nnc(SCc2cccc(F)c2)s1
AC50 [1]: 7.94 µM [rising, partial curve]

CC1=NN(C(=O)COc2ccccc2C)C(O)(c2ccc(Cl)cc2)C1 (configuration not stated)
AC50 [1]: 20.6 µM [falling, partial curve]

C=CCn1c(SCC(=O)c2ccc(O)c(O)c2)nnc1-c1ccc(C)cc1
AC50 [1]: 20.6 µM [falling, single point]

Cc1cc(C)cc(OC(=O)c2cccnc2)c1
AC50 [1]: 15.8 µM [rising, partial curve, poor fit]

Cc1c(C)c2ccc(OCC(=O)NCCCN3CCCC3=O)cc2oc1=O
AC50 [1]: 10 µM [rising, partial curve, poor fit]

CC(=O)c1ccc(NC(=O)C(C)OC(=O)c2ccc3c(c2)nc(C)n3-c2ccccc2)cc1 (configuration not stated)
AC50 [1]: 29.1 µM [falling, single point]

O=C(Nc1ccccc1C(=O)Nc1ccccn1)c1cccc([N+](=O)[O-])c1
AC50 [1]: 11.2 µM [falling, single point]

CC(=O)NC1C(=O)N=C(SCC(=O)NCc2ccccc2)NC1=O (configuration not stated)
AC50 [1]: 8.2 µM [rising, partial curve, poor fit]

CCN(C(=O)Cn1c(=O)n(Cc2ccccc2)c(=O)c2ccccc21)c1cccc(C)c1
AC50 [1]: 29.1 µM [falling, single point]

Cc1cc(C)c2nc(NC(=O)c3ccco3)sc2c1
AC50 [1]: 14.1 µM [falling, single point]

CC(=O)Oc1cccc(Nc2ncnc3ccccc23)c1
AC50 [1]: 17.8 µM [falling, single point]

CC(C)(C)NCC1(CO)SC(N)=NC1=O (configuration not stated)
AC50 [1]: 20 µM [falling, partial curve, poor fit]
AC50 [2]: 31.6 µM [rising, partial curve, poor fit]

COc1ccc(S(=O)(=O)N2CCOCC2)c2ccccc12
AC50 [1]: 25.1 µM [rising, single point]

O=C1/C(=C/c2cccs2)SC(=S)N1N1CCOCC1
AC50 [1]: 11.2 µM [rising, partial curve]

O=C(COC(=O)c1ccccc1)NCc1ccco1
AC50 [1]: 2.24 µM [rising, partial curve, poor fit]

CC(C)COC(=S)Nc1ccccc1
AC50 [1]: 2.91 µM [rising, partial curve, poor fit]

Cc1[nH]n(C(N)=S)c(=O)c1N=Nc1cccc([N+](=O)[O-])c1C
AC50 [1]: 6.31 µM [rising, partial curve, poor fit]
AC50 [2]: 0.631 µM [falling, partial curve, poor fit]

CNC[C@@H]1Oc2ccc(NC(=O)Nc3cccc4ccccc34)cc2C(=O)N([C@@H](C)CO)C[C@@H]1C
AC50 [1]: 6.51 µM [falling, full curve]

CCC(CC)c1nnc(NC(=O)C2CC(=O)N(C3CCCC3)C2)s1 (configuration not stated)
AC50 [1]: 8.91 µM [falling, partial curve, poor fit]

COc1ccc(C(=O)CNc2ccccc2CO)cc1
AC50 [1]: 22.4 µM [falling, single point]

O=C(CN1c2cccc3cccc(c23)S1(=O)=O)Nc1cccc(S(=O)(=O)N2CCOCC2)c1
AC50 [1]: 10.3 µM [falling, partial curve]

Cc1cc(C)cc(NC(=O)Cn2ncn3c(cc4ccccc43)c2=O)c1
AC50 [1]: 23.1 µM [falling, single point]

COc1cc(OC)nc(NC(=S)NC(=O)c2ccccc2)n1
AC50 [1]: 20.6 µM [falling, partial curve]

COc1ccccc1NS(=O)(=O)c1ccc(C)c(NC(=O)C2CCCO2)c1 (configuration not stated)
AC50 [1]: 1.46 µM [rising, partial curve, poor fit]

Cc1nc(NC(=O)C2CCCCC2)sc1C
AC50 [1]: 14.6 µM [falling, partial curve]

COc1ccc(/C=C/C(=O)N[C@H](C(=O)O)C(C)C)cc1
AC50 [1]: 12.6 µM [falling, partial curve, poor fit]

CCN1CCCC1CNC(=O)c1cc2c(-c3ccc(Cl)cc3)nn(C)c2s1 (configuration not stated)
AC50 [1]: 29.1 µM [falling, partial curve, poor fit]

Cc1ccc(S(=O)(=O)NCc2csc(C)n2)cc1
AC50 [1]: 6.31 µM [falling, partial curve, poor fit]

Cc1ccc(CNC(=O)CSc2nc(C)cs2)cc1
AC50 [1]: 10 µM [rising, partial curve, poor fit]

C=CCc1cc(Cl)ccc1OCCCNCCO
AC50 [1]: 12.6 µM [falling, partial curve, poor fit]

O=C(Nc1cccnc1)c1cc2cc(Br)ccc2oc1=O
AC50 [1]: 3.98 µM [rising, full curve, poor fit]
